Experimental data published in the supplement of paper PMC10849652.
The other results are listed elsewhere or left out.

Chains of the proteins cited; added tags and fusions are not shown. Lines headed by an entry give the natural chain unless they say otherwise; changes in a name come on top.
UniProt Q96SB4, whole entry, looked up: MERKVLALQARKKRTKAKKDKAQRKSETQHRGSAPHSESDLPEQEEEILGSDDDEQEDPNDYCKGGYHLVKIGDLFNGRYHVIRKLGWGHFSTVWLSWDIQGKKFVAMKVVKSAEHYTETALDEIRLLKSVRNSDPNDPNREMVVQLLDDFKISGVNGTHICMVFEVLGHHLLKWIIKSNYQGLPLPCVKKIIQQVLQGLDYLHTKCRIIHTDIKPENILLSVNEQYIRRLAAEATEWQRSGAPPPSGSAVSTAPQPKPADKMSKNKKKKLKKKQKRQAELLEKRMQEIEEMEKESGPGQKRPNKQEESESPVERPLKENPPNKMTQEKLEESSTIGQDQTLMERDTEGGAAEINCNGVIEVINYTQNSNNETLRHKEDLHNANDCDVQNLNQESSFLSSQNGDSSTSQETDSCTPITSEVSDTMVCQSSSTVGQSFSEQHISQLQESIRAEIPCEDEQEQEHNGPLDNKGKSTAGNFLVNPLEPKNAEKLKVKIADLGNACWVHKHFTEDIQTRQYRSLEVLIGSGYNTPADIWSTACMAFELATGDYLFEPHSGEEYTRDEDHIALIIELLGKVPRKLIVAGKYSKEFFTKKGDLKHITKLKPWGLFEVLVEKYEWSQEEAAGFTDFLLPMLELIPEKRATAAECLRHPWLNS
UniProt Q9NYA1, whole entry, looked up: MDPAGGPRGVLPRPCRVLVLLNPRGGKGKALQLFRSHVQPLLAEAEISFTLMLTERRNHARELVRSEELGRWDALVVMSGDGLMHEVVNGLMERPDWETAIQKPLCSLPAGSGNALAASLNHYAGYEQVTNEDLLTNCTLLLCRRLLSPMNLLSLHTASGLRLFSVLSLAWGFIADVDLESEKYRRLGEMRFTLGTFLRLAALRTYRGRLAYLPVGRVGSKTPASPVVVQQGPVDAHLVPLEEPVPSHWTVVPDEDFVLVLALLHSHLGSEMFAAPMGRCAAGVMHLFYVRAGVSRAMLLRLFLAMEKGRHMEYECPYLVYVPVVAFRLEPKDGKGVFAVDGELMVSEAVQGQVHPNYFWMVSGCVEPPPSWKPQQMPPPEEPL
UniProt Q9Y5M8: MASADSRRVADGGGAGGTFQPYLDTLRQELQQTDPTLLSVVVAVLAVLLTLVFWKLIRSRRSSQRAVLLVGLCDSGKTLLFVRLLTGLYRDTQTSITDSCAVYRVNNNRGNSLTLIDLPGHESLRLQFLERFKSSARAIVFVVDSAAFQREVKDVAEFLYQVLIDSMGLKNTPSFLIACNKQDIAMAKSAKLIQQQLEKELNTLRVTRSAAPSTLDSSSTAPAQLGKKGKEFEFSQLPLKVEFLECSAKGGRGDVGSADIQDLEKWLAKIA
UniProt Q92783: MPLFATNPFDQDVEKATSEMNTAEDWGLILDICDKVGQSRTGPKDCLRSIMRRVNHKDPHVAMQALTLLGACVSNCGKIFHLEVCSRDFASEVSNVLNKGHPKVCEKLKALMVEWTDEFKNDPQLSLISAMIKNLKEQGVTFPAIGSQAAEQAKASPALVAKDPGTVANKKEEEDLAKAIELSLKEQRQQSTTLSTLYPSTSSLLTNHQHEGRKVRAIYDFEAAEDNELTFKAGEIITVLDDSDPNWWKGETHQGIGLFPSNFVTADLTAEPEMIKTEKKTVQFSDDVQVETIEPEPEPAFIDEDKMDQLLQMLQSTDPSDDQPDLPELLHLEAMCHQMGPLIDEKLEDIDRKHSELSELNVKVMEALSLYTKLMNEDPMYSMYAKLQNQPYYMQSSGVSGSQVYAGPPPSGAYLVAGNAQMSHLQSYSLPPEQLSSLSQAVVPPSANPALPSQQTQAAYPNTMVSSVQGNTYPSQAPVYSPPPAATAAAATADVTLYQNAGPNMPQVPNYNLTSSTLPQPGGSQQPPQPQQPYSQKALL
UniProt P30626: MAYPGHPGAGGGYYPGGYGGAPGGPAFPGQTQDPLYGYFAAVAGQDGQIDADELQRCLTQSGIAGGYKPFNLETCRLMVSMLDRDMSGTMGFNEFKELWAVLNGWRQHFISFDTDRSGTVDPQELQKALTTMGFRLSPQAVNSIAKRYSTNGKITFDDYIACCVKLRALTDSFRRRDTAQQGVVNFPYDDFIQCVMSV
UniProt P40763, whole entry, looked up: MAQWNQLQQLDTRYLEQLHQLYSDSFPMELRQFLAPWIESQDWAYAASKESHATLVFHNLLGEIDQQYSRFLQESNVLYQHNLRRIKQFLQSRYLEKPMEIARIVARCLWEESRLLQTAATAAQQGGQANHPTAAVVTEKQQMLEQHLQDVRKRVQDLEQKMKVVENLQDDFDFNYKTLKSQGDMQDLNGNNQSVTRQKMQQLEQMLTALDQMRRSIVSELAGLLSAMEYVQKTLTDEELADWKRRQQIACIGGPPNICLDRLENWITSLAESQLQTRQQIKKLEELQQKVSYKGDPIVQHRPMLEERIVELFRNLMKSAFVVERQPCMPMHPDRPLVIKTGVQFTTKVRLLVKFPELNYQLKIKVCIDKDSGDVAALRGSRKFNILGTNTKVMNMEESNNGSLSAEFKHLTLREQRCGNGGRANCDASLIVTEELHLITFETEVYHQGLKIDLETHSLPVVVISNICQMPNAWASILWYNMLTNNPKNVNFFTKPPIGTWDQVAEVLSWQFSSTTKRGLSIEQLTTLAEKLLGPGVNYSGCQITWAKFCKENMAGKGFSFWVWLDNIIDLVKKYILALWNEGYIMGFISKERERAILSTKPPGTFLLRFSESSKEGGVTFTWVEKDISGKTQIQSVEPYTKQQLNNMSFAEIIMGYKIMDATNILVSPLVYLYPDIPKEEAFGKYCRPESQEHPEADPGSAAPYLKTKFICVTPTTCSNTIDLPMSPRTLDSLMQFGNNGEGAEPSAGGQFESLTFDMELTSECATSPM
UniProt Q13247: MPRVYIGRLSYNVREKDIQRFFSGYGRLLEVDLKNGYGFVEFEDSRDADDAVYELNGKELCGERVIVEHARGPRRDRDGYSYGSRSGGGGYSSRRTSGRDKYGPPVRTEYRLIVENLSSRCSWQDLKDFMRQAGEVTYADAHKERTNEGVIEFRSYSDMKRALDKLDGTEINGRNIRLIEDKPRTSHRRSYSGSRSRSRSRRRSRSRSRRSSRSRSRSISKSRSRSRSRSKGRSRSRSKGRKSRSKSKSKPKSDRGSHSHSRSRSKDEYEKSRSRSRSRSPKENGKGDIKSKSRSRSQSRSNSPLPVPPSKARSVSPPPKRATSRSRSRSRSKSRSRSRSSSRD
UniProt Q8TCT8: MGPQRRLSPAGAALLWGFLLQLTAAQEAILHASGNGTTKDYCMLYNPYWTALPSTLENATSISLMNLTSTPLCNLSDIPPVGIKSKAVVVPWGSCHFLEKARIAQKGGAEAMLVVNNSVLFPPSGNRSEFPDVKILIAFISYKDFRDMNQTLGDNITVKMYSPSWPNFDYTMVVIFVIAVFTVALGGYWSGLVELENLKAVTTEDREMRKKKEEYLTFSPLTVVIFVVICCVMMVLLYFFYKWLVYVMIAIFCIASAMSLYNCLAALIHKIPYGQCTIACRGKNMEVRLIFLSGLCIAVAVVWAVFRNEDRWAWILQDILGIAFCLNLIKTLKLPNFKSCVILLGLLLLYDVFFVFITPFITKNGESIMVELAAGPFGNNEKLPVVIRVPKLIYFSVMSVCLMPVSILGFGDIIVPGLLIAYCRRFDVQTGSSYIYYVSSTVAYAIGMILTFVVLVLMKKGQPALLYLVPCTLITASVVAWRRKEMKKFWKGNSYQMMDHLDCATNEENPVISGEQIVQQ
UniProt P09486: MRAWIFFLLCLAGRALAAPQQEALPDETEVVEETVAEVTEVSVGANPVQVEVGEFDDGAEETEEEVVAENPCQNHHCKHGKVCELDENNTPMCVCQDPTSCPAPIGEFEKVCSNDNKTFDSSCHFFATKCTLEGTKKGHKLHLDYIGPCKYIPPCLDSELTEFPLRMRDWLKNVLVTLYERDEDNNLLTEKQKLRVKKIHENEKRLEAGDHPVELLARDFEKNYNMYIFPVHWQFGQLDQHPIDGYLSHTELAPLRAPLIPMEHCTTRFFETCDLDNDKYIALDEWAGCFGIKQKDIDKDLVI
UniProt Q8WW59: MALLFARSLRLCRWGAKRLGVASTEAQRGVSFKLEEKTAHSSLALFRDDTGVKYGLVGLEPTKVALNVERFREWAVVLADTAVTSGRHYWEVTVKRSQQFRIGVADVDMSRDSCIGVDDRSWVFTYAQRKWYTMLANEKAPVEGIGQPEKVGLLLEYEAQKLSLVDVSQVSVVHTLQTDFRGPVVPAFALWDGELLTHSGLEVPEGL
UniProt Q9NSC7: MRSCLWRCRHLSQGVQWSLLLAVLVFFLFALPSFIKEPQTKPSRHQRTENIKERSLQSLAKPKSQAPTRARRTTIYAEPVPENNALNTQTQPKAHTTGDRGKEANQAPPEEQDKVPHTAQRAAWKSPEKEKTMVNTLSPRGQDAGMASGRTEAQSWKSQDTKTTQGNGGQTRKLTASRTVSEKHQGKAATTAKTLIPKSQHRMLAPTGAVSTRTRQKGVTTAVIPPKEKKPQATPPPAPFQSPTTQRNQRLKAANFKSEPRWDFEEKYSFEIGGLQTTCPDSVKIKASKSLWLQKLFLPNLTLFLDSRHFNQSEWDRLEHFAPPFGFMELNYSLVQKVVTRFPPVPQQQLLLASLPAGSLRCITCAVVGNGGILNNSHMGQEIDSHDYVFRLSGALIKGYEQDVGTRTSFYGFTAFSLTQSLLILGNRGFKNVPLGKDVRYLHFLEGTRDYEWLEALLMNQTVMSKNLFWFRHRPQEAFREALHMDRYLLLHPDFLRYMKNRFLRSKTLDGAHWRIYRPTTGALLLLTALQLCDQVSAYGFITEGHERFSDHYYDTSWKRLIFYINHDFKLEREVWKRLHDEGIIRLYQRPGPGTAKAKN
UniProt Q9NP77: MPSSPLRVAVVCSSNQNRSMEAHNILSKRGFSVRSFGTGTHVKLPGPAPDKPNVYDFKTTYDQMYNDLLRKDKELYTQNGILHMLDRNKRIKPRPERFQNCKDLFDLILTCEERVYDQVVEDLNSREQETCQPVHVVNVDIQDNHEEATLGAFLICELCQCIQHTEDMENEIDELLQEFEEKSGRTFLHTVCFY
UniProt Q96EA4: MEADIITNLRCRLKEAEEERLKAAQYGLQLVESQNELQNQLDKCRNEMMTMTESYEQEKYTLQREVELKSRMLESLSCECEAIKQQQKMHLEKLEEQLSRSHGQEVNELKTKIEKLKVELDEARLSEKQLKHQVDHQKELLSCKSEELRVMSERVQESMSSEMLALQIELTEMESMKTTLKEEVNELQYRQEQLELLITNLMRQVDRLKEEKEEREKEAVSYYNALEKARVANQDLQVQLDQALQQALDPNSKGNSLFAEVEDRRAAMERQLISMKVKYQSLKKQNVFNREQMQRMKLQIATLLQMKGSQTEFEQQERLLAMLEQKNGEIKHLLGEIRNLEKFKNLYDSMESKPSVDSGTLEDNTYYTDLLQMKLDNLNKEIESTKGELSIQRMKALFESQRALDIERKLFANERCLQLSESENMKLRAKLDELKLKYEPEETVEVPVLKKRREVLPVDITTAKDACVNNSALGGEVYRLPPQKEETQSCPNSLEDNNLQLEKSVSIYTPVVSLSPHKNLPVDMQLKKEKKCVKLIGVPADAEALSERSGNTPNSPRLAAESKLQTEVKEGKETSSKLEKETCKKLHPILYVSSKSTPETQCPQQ
UniProt Q8WWL2: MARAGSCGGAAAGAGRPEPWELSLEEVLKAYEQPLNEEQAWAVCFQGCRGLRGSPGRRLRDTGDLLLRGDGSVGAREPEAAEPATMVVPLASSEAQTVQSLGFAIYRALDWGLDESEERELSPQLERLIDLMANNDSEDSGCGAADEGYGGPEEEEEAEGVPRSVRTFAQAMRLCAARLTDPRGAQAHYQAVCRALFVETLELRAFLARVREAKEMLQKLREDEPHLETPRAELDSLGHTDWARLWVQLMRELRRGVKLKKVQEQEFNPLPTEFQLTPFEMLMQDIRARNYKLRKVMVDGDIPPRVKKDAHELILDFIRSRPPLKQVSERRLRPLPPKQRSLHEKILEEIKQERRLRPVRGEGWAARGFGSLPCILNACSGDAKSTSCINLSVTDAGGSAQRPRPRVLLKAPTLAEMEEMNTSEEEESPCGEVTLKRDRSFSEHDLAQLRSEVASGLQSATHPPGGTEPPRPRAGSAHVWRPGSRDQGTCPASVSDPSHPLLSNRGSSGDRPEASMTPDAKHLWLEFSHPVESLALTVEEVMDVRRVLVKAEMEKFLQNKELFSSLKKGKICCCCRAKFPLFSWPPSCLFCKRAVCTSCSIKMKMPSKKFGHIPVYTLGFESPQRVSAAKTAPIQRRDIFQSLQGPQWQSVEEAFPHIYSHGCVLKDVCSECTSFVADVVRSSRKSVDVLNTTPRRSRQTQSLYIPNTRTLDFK
UniProt P49675, whole entry, looked up: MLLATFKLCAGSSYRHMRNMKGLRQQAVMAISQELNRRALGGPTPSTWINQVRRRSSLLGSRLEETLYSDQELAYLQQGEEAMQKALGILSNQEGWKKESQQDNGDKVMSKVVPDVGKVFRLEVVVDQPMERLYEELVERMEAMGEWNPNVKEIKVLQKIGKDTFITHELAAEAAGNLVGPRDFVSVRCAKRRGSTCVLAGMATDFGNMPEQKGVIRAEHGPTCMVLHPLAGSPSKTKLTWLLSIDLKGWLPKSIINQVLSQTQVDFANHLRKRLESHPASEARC

Legend:
Assay in all cases: log2 fold change, soluble protein after heating vs DMSO (PISA); higher = thermal stabilisation; K562 cells, 10 uM, 30 min; active = over 0.2 and 3.5 SD of the protein, either way, in both replicates (recomputed)
[1] = compound: C#Cc1cccc(Nc2ncnc3cc(OCCOC)c(OCCOC)cc23)c1 [erlotinib]
In short: (§1)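 Quantification of soluble protein used TMTpro 16plex LC-MS/MS, with channel sums equalised. Samples were the supernatant after 21,000xg for 90 min of pooled aliquots from K562 cells (2×10^6 cells/mL) treated with 10 μM compound for 30 min, heated for 3 min over 48°C-58°C, and extracted in PBS with 0.5% NP-40 at 4°C. Values, from duplicates, describe thermal stability against control samples on a log2 fold-change scale.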

[2] = compound: C/C(=N\NC(=O)C1=CC(=CC=C1)S(=O)(=O)N2CCOCC2)/C3=C(C=CC(=C3)Cl)O
In short: as §1

[3] = compound: C1=CC(=C(C=C1Cl)C2=NC3=NC=CN=C3C(=N2)NC4=CC=NC=C4)F
In short: as §1

[4] = compound: C1=CC(=CC=C1C2=NC3=C(N2)C=C(C=C3)C(=O)N)OC4=CC=C(C=C4)Cl
In short: as §1

[5] = compound: C1=CC2=C(C=CC(=C2)/C=C\3/C(=O)NC(=NCC4=CC=CS4)S3)N=C1
In short: as §1

[6] = compound: C1=CC2=NC=CN=C2C=C1/C=C/3\C(=O)NC(=O)S3
In short: as §1

[7] = compound: C1=CC=C(C=C1)C2=NC(=C(N2)C3=CC=NC=C3)C4=CC(=C(C=C4)Cl)O
In short: as §1

[8] = compound: C1=CC=C2C(=C1)C3=NNC4=CC=CC(=C43)C2=O
In short: as §1

[9] = compound: C1CCN(C1)C(=O)NC2=CC=CC(=C2)NC3=NC=C(C(=N3)NCCC4=CN=CN4)Br
In short: as §1

[10] = compound: C1CN(CCC1(CC2=CC=C(C=C2)Cl)N)C3=NC=NC4=C3C=CN4
In short: as §1

Measured: log2 fold change

SRPK1 (UniProt Q96SB4)
inactive: [1] -0.262 | [2] -0.227 | [3] -0.465 | [4] 0.017 | [5] -0.113 | [6] 0.006 | [7] -0.033 | [8] -0.031 | [9] 0.043 | [10] -0.142

SPHK1 isoform 2 (UniProt Q9NYA1)
inactive: [1] -0.028 | [2] 0.109 | [3] -0.039 | [4] -0.019 | [5] 0.051 | [6] 0.001 | [7] 0.074 | [8] -0.123 | [9] -0.059 | [10] 0.115

SSRP1 (UniProt Q08945)
inactive: [1] -0.018 | [2] 0.143 | [3] 0.005 | [4] 0.014 | [5] 0.029 | [6] 0.022 | [7] -0.016 | [8] -0.029 | [9] -0.052 | [10] 0.009

SPECC1 (UniProt Q5M775)
inactive: [1] 0.044 | [2] -0.002 | [3] 0.022 | [4] 0 | [5] 0.056 | [6] 0.02 | [7] -0.208 | [8] -0.023 | [9] 0.026 | [10] 0.012

SSB (UniProt P05455)
inactive: [1] -0.05 | [2] 0.045 | [3] 0.013 | [4] 0.028 | [5] -0.043 | [6] -0.014 | [7] -0.056 | [8] -0.169 | [9] -0.151 | [10] -0.03

SPP2 (UniProt Q13103)
inactive: [1] -0.098 | [2] -0.171 | [3] -0.038 | [4] 0.037 | [5] 0 | [6] -0.064 | [8] -0.259 | [9] -0.001 | [10] 0.12

SRPRB (UniProt Q9Y5M8)
inactive: [1] -0.015 | [2] 0.106 | [3] 0.122 | [4] -0.018 | [5] 0.045 | [6] -0.036 | [7] 0.089 | [8] 0.024 | [9] -0.006 | [10] 0.017

ST3GAL4 isoform 4 (UniProt Q11206)
inactive: [1] -0.056 | [2] 0.004 | [3] -0.073 | [4] 0.088 | [5] -0.079 | [6] 0.034 | [8] 0.16 | [9] 0.078 | [10] -0.052

SRC isoform 2 (UniProt P12931)
inactive: [1] -0.014 | [2] -0.034 | [3] -0.006 | [4] 0.153 | [5] 0.088 | [6] 0.022 | [7] 0.036 | [8] -0.049 | [9] -0.073 | [10] -0.025

STAM (UniProt Q92783)
inactive: [1] -0.054 | [2] -0.059 | [3] 0.11 | [4] 0.028 | [5] 0.051 | [6] 0.082 | [7] 0.183 | [8] -0.077 | [9] -0.003 | [10] 0.05

ST6GAL1 (UniProt P15907)
inactive: [1] 0.053 | [2] 0.006 | [3] 0.017 | [4] 0.022 | [5] -0.033 | [6] -0.009 | [7] 0.064 | [8] 0.048 | [9] -0.064 | [10] 0.041

SRI (UniProt P30626)
inactive: [1] -0.042 | [2] 0.113 | [3] 0.322 | [4] 0.025 | [5] 0.09 | [6] 0.121 | [7] 0.185 | [8] 0.016 | [9] -0.037 | [10] -0.041

SPIN1 (UniProt Q9Y657)
inactive: [1] -0.17 | [2] -0.107 | [3] 0.06 | [4] -0.017 | [5] 0.065 | [6] 0 | [7] -0.008 | [8] -0.035 | [9] -0.007 | [10] -0.024

SRSF5 (UniProt Q13243)
inactive: [1] -0.097 | [2] 0.012 | [3] -0.479 | [4] 0.096 | [5] -0.402 | [6] -0.028 | [7] -0.142 | [8] 0.046 | [9] -0.135 | [10] -0.146

SRGAP2 (UniProt O75044)
inactive: [1] -0.001 | [2] 0.066 | [3] -0.038 | [4] 0.082 | [5] 0.042 | [6] 0.02 | [7] 0.027 | [8] -0.025 | [9] -0.031 | [10] -0.032

ST3GAL2 (UniProt Q16842)
inactive: [1] 0.032 | [2] 0.07 | [3] -0.069 | [4] 0.009 | [5] -0.085 | [6] -0.052 | [7] -0.057 | [8] 0.045 | [9] -0.024 | [10] 0.108

STAT3 (UniProt P40763)
inactive: [1] -0.023 | [2] 0.147 | [3] 0.026 | [4] 0.007 | [5] 0.031 | [6] 0.031 | [7] 0.011 | [8] -0.001 | [9] -0.01 | [10] -0.036

SRSF6 (UniProt Q13247)
inactive: [1] 0.084 | [2] 0.096 | [3] -0.072 | [4] 0.062 | [5] -0.325 | [6] 0.079 | [8] -0.251 | [9] 0.09 | [10] -0.154

SPPL2A (UniProt Q8TCT8)
inactive: [1] -0.064 | [2] -0.131 | [3] -0.034 | [4] -0.096 | [5] -0.006 | [6] 0.078 | [7] 0.07 | [8] -0.048 | [9] 0.105 | [10] 0.01

SPARC (UniProt P09486)
inactive: [1] 0.082 | [2] 0.008 | [3] -0.005 | [4] -0.071 | [5] 0.018 | [6] 0.04 | [7] -0.068 | [8] 0.039 | [9] 0.012 | [10] 0.125

SPRYD4 (UniProt Q8WW59)
inactive: [1] -0.069 | [2] -0.005 | [3] 0.03 | [4] 0.008 | [5] 0.009 | [6] -0.002 | [7] -0.04 | [8] 0.049 | [9] 0.014 | [10] 0.024

SRP9 (UniProt P49458)
inactive: [1] -0.111 | [2] -0.111 | [3] -0.48 | [4] -0.023 | [5] -0.063 | [6] 0.031 | [7] -0.076 | [8] -0.023 | [9] 0.061 | [10] -0.089

ST6GALNAC1 (UniProt Q9NSC7)
inactive: [1] 0.026 | [2] -0.007 | [3] 0.005 | [4] 0.032 | [5] -0.045 | [6] -0.065 | [7] 0.037 | [8] -0.031 | [9] -0.061 | [10] 0.039

SSU72 (UniProt Q9NP77)
inactive: [1] 0.119 | [2] 0.295 | [3] 0.084 | [4] 0.015 | [5] 0.22 | [6] 0.033 | [8] 0.024 | [9] -0.005 | [10] -0.063

Two entries drawn at random from the list so far:
SSU72 (UniProt Q9NP77)
inactive: [1] 0.119 | [2] 0.295 | [3] 0.084 | [4] 0.015 | [5] 0.22 | [6] 0.033 | [8] 0.024 | [9] -0.005 | [10] -0.063

ST6GALNAC1 (UniProt Q9NSC7)
inactive: [1] 0.026 | [2] -0.007 | [3] 0.005 | [4] 0.032 | [5] -0.045 | [6] -0.065 | [7] 0.037 | [8] -0.031 | [9] -0.061 | [10] 0.039

Following part.

SRR (UniProt Q9GZT4)
inactive: [1] 0.005 | [2] -0.088 | [3] 0.074 | [4] 0.073 | [5] 0.086 | [6] 0.046 | [7] -0.078 | [8] 0.04 | [9] 0.025 | [10] -0.026

SPDL1 (UniProt Q96EA4)
inactive: [1] 0.075 | [4] -0.102 | [7] -0.228 | [9] -0.032 | [10] -0.134

SPRR2B (UniProt P35325)
inactive: [1] 0.107 | [3] 0.374 | [4] -0.275 | [6] 0.09

SPIRE2 (UniProt Q8WWL2)
inactive: [3] -0.362 | [6] 0.031 | [7] -0.611 | [9] 0.235 | [10] 0.258

STAR (UniProt P49675)
inactive: [7] -0.134

SSBP4 (UniProt Q9BWG4)
inactive: [1] 0.08 | [2] 0.076 | [4] 0.043 | [5] -0.054 | [6] -0.056 | [7] -0.052 | [8] -0.099 | [9] 0.022 | [10] -0.024

STAT2 (UniProt P52630)
inactive: [1] 0.081 | [2] 0.038 | [4] 0 | [5] -0.111 | [6] -0.103 | [7] -0.04 | [8] -0.013 | [9] -0.143 | [10] 0.075

STAB1 (UniProt Q9NY15)
inactive: [1] 0.775 | [3] -0.321 | [4] -0.025 | [6] 0.145 | [7] -0.072
